# Laboratory results taken from the supplement of paper PMC8728848.
# The other results are listed elsewhere or left out.
# How the values were obtained:
# Assay in all cases: glycan array binding signal (z-score within array); higher = stronger binding
# Conditions in all cases: glycan notation: IUPAC condensed, linker removed
# [1] = biological target: Gal(b1-4)GlcNAc(b1-3)Gal(b1-3)GlcNAc
# Summary of the method: (§1)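 The binding signal is a Z-score computed within each array and averaged over linkers. Arrays of the same protein sequence at different concentrations or buffers were also averaged together. Data originate from 3228 arrays in the Consortium for Functional Glycomics database, kept only where the protein sequence was available.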
# [2] = biological target: Gal(b1-4)GlcNAc(b1-3)Gal(b1-4)Glc
# Summary of the method: as §1
# [3] = biological target: Gal(b1-4)GlcNAc(b1-3)Gal(b1-4)GlcNAc
# Summary of the method: as §1
# [4] = biological target: Gal(b1-4)GlcNAc(b1-3)Gal(b1-4)GlcNAc(b1-2)Man(a1-3)[Gal(b1-4)GlcNAc(b1-3)Gal(b1-4)GlcNAc(b1-2)Man(a1-6)]Man(b1-4)GlcNAc(b1-4)GlcNAc
# Summary of the method: as §1
# [5] = biological target: Gal(b1-4)GlcNAc(b1-3)Gal(b1-4)GlcNAc(b1-2)Man(a1-3)[Gal(b1-4)GlcNAc(b1-3)Gal(b1-4)GlcNAc(b1-2)Man(a1-6)]Man(b1-4)GlcNAc(b1-4)[Fuc(a1-6)]GlcNAc
# Summary of the method: as §1
# [6] = biological target: Gal(b1-4)GlcNAc(b1-3)Gal(b1-4)GlcNAc(b1-2)[Gal(b1-4)GlcNAc(b1-3)Gal(b1-4)GlcNAc(b1-6)]Man(a1-6)[Gal(b1-4)GlcNAc(b1-3)Gal(b1-4)GlcNAc(b1-2)Man(a1-3)]Man(b1-4)GlcNAc(b1-4)GlcNAc
# Summary of the method: as §1
# [7] = biological target: Gal(b1-4)GlcNAc(b1-3)Gal(b1-4)GlcNAc(b1-2)[Gal(b1-4)GlcNAc(b1-3)Gal(b1-4)GlcNAc(b1-6)]Man(a1-6)[Gal(b1-4)GlcNAc(b1-3)Gal(b1-4)GlcNAc(b1-2)Man(a1-3)]Man(b1-4)GlcNAc(b1-4)[Fuc(a1-6)]GlcNAc
# Summary of the method: as §1
# [8] = biological target: Gal(b1-4)GlcNAc(b1-3)Gal(b1-4)GlcNAc(b1-3)Gal(b1-4)GlcNAc
# Summary of the method: as §1
# [9] = biological target: Gal(b1-4)GlcNAc(b1-3)Gal(b1-4)GlcNAc(b1-3)Gal(b1-4)GlcNAc(b1-2)Man(a1-3)[Gal(b1-4)GlcNAc(b1-3)Gal(b1-4)GlcNAc(b1-3)Gal(b1-4)GlcNAc(b1-2)Man(a1-6)]Man(b1-4)GlcNAc(b1-4)GlcNAc
# Summary of the method: as §1
# [10] = biological target: Gal(b1-4)GlcNAc(b1-3)Gal(b1-4)GlcNAc(b1-3)Gal(b1-4)GlcNAc(b1-2)Man(a1-3)[Gal(b1-4)GlcNAc(b1-3)Gal(b1-4)GlcNAc(b1-3)Gal(b1-4)GlcNAc(b1-2)Man(a1-6)]Man(b1-4)GlcNAc(b1-4)[Fuc(a1-6)]GlcNAc
# Summary of the method: as §1
# [11] = biological target: Gal(b1-4)GlcNAc(b1-3)Gal(b1-4)GlcNAc(b1-3)Gal(b1-4)GlcNAc(b1-2)[Gal(b1-4)GlcNAc(b1-3)Gal(b1-4)GlcNAc(b1-3)Gal(b1-4)GlcNAc(b1-6)]Man(a1-6)[Gal(b1-4)GlcNAc(b1-3)Gal(b1-4)GlcNAc(b1-3)Gal(b1-4)GlcNAc(b1-2)Man(a1-3)]Man(b1-4)GlcNAc(b1-4)[Fuc(a1-6)]GlcNAc
# Summary of the method: as §1
# [12] = biological target: Gal(b1-4)GlcNAc(b1-3)Gal(b1-4)GlcNAc(b1-3)Gal(b1-4)GlcNAc(b1-3)Gal(b1-4)GlcNAc(b1-2)Man(a1-3)[Gal(b1-4)GlcNAc(b1-3)Gal(b1-4)GlcNAc(b1-3)Gal(b1-4)GlcNAc(b1-3)Gal(b1-4)GlcNAc(b1-2)Man(a1-6)]Man(b1-4)GlcNAc(b1-4)GlcNAc
# Summary of the method: as §1
# [13] = biological target: Gal(b1-4)GlcNAc(b1-3)Gal(b1-4)GlcNAc(b1-3)Gal(b1-4)GlcNAc(b1-3)Gal(b1-4)GlcNAc(b1-2)Man(a1-3)[Gal(b1-4)GlcNAc(b1-3)Gal(b1-4)GlcNAc(b1-3)Gal(b1-4)GlcNAc(b1-3)Gal(b1-4)GlcNAc(b1-2)Man(a1-6)]Man(b1-4)GlcNAc(b1-4)[Fuc(a1-6)]GlcNAc
# Summary of the method: as §1
# [14] = biological target: Gal(b1-4)GlcNAc(b1-3)Gal(b1-4)GlcNAc(b1-3)Gal(b1-4)GlcNAc(b1-3)Gal(b1-4)GlcNAc(b1-2)[Gal(b1-4)GlcNAc(b1-3)Gal(b1-4)GlcNAc(b1-3)Gal(b1-4)GlcNAc(b1-3)Gal(b1-4)GlcNAc(b1-6)]Man(a1-6)[Gal(b1-4)GlcNAc(b1-3)Gal(b1-4)GlcNAc(b1-3)Gal(b1-4)GlcNAc(b1-3)Gal(b1-4)GlcNAc(b1-2)Man(a1-3)]Man(b1-4)GlcNAc(b1-4)[Fuc(a1-6)]GlcNAc
# Summary of the method: as §1
# [15] = biological target: Gal(b1-4)GlcNAc(b1-3)Gal(b1-4)GlcNAc(b1-3)Gal(b1-4)GlcNAc(b1-3)Gal(b1-4)GlcNAc(b1-3)Gal(b1-4)GlcNAc(b1-2)Man(a1-3)[Gal(b1-4)GlcNAc(b1-3)Gal(b1-4)GlcNAc(b1-3)Gal(b1-4)GlcNAc(b1-3)Gal(b1-4)GlcNAc(b1-3)Gal(b1-4)GlcNAc(b1-2)Man(a1-6)]Man(b1-4)GlcNAc(b1-4)GlcNAc
# Summary of the method: as §1
# [16] = biological target: Gal(b1-4)GlcNAc(b1-3)Gal(b1-4)GlcNAc(b1-3)Gal(b1-4)GlcNAc(b1-3)Gal(b1-4)GlcNAc(b1-3)Gal(b1-4)GlcNAc(b1-2)Man(a1-3)[Gal(b1-4)GlcNAc(b1-3)Gal(b1-4)GlcNAc(b1-3)Gal(b1-4)GlcNAc(b1-3)Gal(b1-4)GlcNAc(b1-3)Gal(b1-4)GlcNAc(b1-2)Man(a1-6)]Man(b1-4)GlcNAc(b1-4)[Fuc(a1-6)]GlcNAc
# Summary of the method: as §1
# [17] = biological target: Gal(b1-4)GlcNAc(b1-3)Gal(b1-4)GlcNAc(b1-3)Gal(b1-4)GlcNAc(b1-3)Gal(b1-4)GlcNAc(b1-3)Gal(b1-4)GlcNAc(b1-2)[Gal(b1-4)GlcNAc(b1-3)Gal(b1-4)GlcNAc(b1-3)Gal(b1-4)GlcNAc(b1-3)Gal(b1-4)GlcNAc(b1-3)Gal(b1-4)GlcNAc(b1-6)]Man(a1-6)[Gal(b1-4)GlcNAc(b1-3)Gal(b1-4)GlcNAc(b1-3)Gal(b1-4)GlcNAc(b1-3)Gal(b1-4)GlcNAc(b1-3)Gal(b1-4)GlcNAc(b1-2)Man(a1-3)]Man(b1-4)GlcNAc(b1-4)[Fuc(a1-6)]GlcNAc
# Summary of the method: as §1
# [18] = biological target: Gal(b1-4)GlcNAc(b1-3)Gal(b1-4)GlcNAc(b1-3)Gal(b1-4)GlcNAc(b1-3)Gal(b1-4)GlcNAc(b1-3)Gal(b1-4)GlcNAc(b1-3)Gal(b1-4)GlcNAc(b1-2)Man(a1-3)[Gal(b1-4)GlcNAc(b1-3)Gal(b1-4)GlcNAc(b1-3)Gal(b1-4)GlcNAc(b1-3)Gal(b1-4)GlcNAc(b1-3)Gal(b1-4)GlcNAc(b1-3)Gal(b1-4)GlcNAc(b1-2)Man(a1-6)]Man(b1-4)GlcNAc(b1-4)GlcNAc
# Summary of the method: as §1
# [19] = biological target: Gal(b1-4)GlcNAc(b1-3)Gal(b1-4)GlcNAc(b1-3)GalNAc
# Summary of the method: as §1
binder,measurement,setting,value
SP15308C-bot-338-23-338 (Bacteroides ovatus) (protein) DEWTDEQFKQLISFKTQPGGWGVTDVHVRYANSAKYTYNLPVLVSGSTDNTDDRLVSFSLRDDTLDILNFEKFGNRPELYFRELPQKYYSFPKELTIPAGQSHALLPIEFSLDGLDDSQKWALPLKVCEDANGTYAVNPRKYYRTAVLRPILFNEFSGRFSGSSLLGTMAGESDIKFSSTEIKLNVVTDSIVFFYAGQRTEDYEDRINYKVFLQFTGDKVDSKKDLYKMKIWAENEKLKFNSYSTPTYKVSSEMDATKTYLKHTYIVISDIDFDFVDYTSVPNYEIEYNMKGGLSVSRDLDTRKPDEDQGSDSKWW,glycan array binding signal (z-score),[1],-0.598
same,glycan array binding signal (z-score),[2],-0.369
same,glycan array binding signal (z-score),[3],-0.716
same,glycan array binding signal (z-score),[4],1.12
same,glycan array binding signal (z-score),[5],0.198
same,glycan array binding signal (z-score),[6],1.57
same,glycan array binding signal (z-score),[7],1.76
same,glycan array binding signal (z-score),[8],-0.191
same,glycan array binding signal (z-score),[9],4.37
same,glycan array binding signal (z-score),[10],0.715
same,glycan array binding signal (z-score),[11],0.777
same,glycan array binding signal (z-score),[12],0.102
same,glycan array binding signal (z-score),[13],1.51
same,glycan array binding signal (z-score),[14],1.89
same,glycan array binding signal (z-score),[15],2.06
same,glycan array binding signal (z-score),[16],2.46
same,glycan array binding signal (z-score),[17],6.22
same,glycan array binding signal (z-score),[18],0.957
same,glycan array binding signal (z-score),[19],-0.235

# Reformatted as tab-separated lines: part of the list above.
binder	measurement	setting	value
SP15308C-bot-338-23-338 (Bacteroides ovatus) (protein) DEWTDEQFKQLISFKTQPGGWGVTDVHVRYANSAKYTYNLPVLVSGSTDNTDDRLVSFSLRDDTLDILNFEKFGNRPELYFRELPQKYYSFPKELTIPAGQSHALLPIEFSLDGLDDSQKWALPLKVCEDANGTYAVNPRKYYRTAVLRPILFNEFSGRFSGSSLLGTMAGESDIKFSSTEIKLNVVTDSIVFFYAGQRTEDYEDRINYKVFLQFTGDKVDSKKDLYKMKIWAENEKLKFNSYSTPTYKVSSEMDATKTYLKHTYIVISDIDFDFVDYTSVPNYEIEYNMKGGLSVSRDLDTRKPDEDQGSDSKWW	glycan array binding signal (z-score)	[15]	2.06
same	glycan array binding signal (z-score)	[16]	2.46
